Laboratory results published in paper PMC7202230.
No constants are given. Whether binding was seen depends on the method and setting. Binding seen in cells or lysates may run through a third protein. These calls come from enrichment with a bait or labelling near it, and not all partners need be listed.

By UniProt entry, the sequences of proteins in these tests, tags left out.
UniProt P60468: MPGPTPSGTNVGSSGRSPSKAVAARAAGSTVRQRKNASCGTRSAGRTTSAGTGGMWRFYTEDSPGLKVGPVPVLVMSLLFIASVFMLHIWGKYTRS

Target: purified recombinant Sec61β full-length, immobilised (UniProt P60468)
Assay: affinity purification with mass spectrometry; purified recombinant Sec61β covalently coupled to Ultralink Biosupport, pull-down from RRL, elution with Triton X-100, TCA precipitation, SDS-PAGE, in-gel tryptic digestion of the ~38 kDa band, LC-MS/MS; only the target purified

- binding: binds
B1: rabbit SGTB (G1SX57), endogenous (protein, UniProt G1SX57 1-304)
chain: MSSIKHLVYAVIRFLREQSQMDAYTSDEQESLEVAIQCLETVFKISSEDTHLAVPQPLTEMFTNSFCKNDILPLSNSAPEDVGKADQLKDEGNNHMKEENYAAAVDCYTQAIELDPNNAVYYCNRAAAQSKLSHYTDAIKDCEKAIAIDSKYSKAYGRMGLALTAMNKFEEAVTSYQKALDLDPENDSYKSNLKIAEQKLREVSSPTGTGLSFDMASLINNPAFISMAASLMQNPQVQQLMSGMMTNAIGGPAAGVGGLTDLSSLIQAGQQFAQQIQQQNPELIEQLRNHIRSRSFSSSTEEHS
